Test results published in article PMC7075923.
These are yes or no findings as the source states them, for the method shown. Some entries that bind do so weakly or less than the wild type. Sequences can lack the tags named with a protein.

Legend:
[1] = target: p7A^Ct (MNSV p7A lacking residues 45 to 65), Gal4-BD fusion (Melon necrotic spot virus) (UniProt Q8V993); experiment: two-hybrid; GAL4 […] system, yeast AH109; DGBp1 or p7A mutants as Gal4-BD fusions (pGBKT7) against pAC-p7A or pAC-p7 (pACT2); growth on SD + DO-A-H-L-W + X-alpha Gal (HIS3, ADE2, MEL1 reporters)
[2] = target: p7A^Nt (MNSV p7A lacking residues 1 to 22), Gal4-BD fusion (Melon necrotic spot virus) (UniProt Q8V993); experiment: as above
[3] = target: T1, MNSV p7A (DGBp1 of Melon necrotic spot virus), Gal4 fusion (Melon necrotic spot virus) (UniProt Q8V993); experiment: as above
T1 sequence: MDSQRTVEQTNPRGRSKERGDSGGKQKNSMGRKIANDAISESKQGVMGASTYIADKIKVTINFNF

[4] = target: T1, MNSV p7A (DGBp1 of Melon necrotic spot virus), Gal4 fusion (Melon necrotic spot virus); experiment: two-hybrid; GAL4 […] system, yeast AH109; DGBp1s and their fnf mutants as Gal4-BD fusions against full-length Arabidopsis ORFs as Gal4-AD fusions; controls pBD-p53 and pAC-ILR3; growth on SD + DO-A-H-L-W + X-alpha Gal

B1: MNSV p7A (DGBp1 of Melon necrotic spot virus), Gal4 fusion (protein, UniProt Q8V993 1-65)
chain: MDSQRTVEQTNPRGRSKERGDSGGKQKNSMGRKIANDAISESKQGVMGASTYIADKIKVTINFNF
binding [1]: no binding
binding [2]: binds
binding [3]: binds

B2: RPP3B, Gal4 fusion (protein, UniProt Q9LVC9 1-120)
chain: MGVFSFVCKSKGGEWTAKQHEGDLEASASSTYDLQRKLVQTALSADSSGGVQSSFSLVSPTSAVFVVVIGGGGGGGFAAGGGAAAGGGGGGEAAAATKEEEKKKEESEEEEGDFGFDLFG
binding [4]: no binding
